Assay [1] has as its target HPV18 E7 (human papillomavirus type 18) (UniProt P06788). Briefly: ELISA. For orientation: ELISA stands for enzyme-linked immunosorbent assay.
The target of assay [2] is YFP-HPV16E7 (human papillomavirus type 16) (UniProt P03129). Briefly: co-IP; only the binder purified.
The target of assay [3] is His-HPV16E7 fusion protein (human papillomavirus type 16) (UniProt P03129). The assay can be described thus: ELISA; competitive: pRb protein at increasing concentrations against positive phage clones for binding to HPV16E7; pair pRb and HPV16E7.

Chains of the proteins cited; added tags and fusions are not shown.
UniProt P06788: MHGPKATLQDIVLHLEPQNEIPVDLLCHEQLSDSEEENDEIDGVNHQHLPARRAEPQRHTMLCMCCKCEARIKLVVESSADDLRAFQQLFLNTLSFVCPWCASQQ
UniProt P03129: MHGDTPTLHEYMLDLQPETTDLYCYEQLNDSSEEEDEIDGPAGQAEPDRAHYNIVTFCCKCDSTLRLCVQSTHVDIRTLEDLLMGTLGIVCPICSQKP

Results are given in words; binding and its absence hold for the method and conditions named. For part of these data: Binding seen in cells or lysates may run through a third protein. Some entries that bind do so weakly or less than the wild type.

B1: Pep-7 (peptide)
peptide: SACPKGLDWCGG
modifications: C&C bridged by disulfide bonds
In the case of B1, the values for the binding result in assay [1] and in assay [2] were “no binding (tested: 800 µM)” and “binds”, respectively.

B2: pRb protein (protein, UniProt P06400 1-928)
chain: MPPKTPRKTAATAAAAAAEPPAPPPPPPPEEDPEQDSGPEDLPLVRLEFEETEEPDFTALCQKLKIPDHVRERAWLTWEKVSSVDGVLGGYIQKKKELWGICIFIAAVDLDEMSFTFTELQKNIEISVHKFFNLLKEIDTSTKVDNAMSRLLKKYDVLFALFSKLERTCELIYLTQPSSSISTEINSALVLKVSWITFLLAKGEVLQMEDDLVISFQLMLCVLDYFIKLSPPMLLKEPYKTAVIPINGSPRTPRRGQNRSARIAKQLENDTRIIEVLCKEHECNIDEVKNVYFKNFIPFMNSLGLVTSNGLPEVENLSKRYEEIYLKNKDLDARLFLDHDKTLQTDSIDSFETQRTPRKSNLDEEVNVIPPHTPVRTVMNTIQQLMMILNSASDQPSENLISYFNNCTVNPKESILKRVKDIGYIFKEKFAKAVGQGCVEIGSQRYKLGVRLYYRVMESMLKSEEERLSIQNFSKLLNDNIFHMSLLACALEVVMATYSRSTSQNLDSGTDLSFPWILNVLNLKAFDFYKVIESFIKAEGNLTREMIKHLERCEHRIMESLAWLSDSPLFDLIKQSKDREGPTDHLESACPLNLPLQNNHTAADMYLSPVRSPKKKGSTTRVNSTANAETQATSAFQTQKPLKSTSLSLFYKKVYRLAYLRLNTLCERLLSEHPELEHIIWTLFQHTLQNEYELMRDRHLDQIMMCSMYGICKVKNIDLKFKIIVTAYKDLPHAVQETFKRVLIKEEEYDSIIVFYNSVFMQRLKTNILQYASTRPPTLSPIPHIPRSPYKFPSSPLRIPGGNIYISPLKSPYKISEGLPTPTKMTPRSRILVSIGESFGTSEKFQKINQMVCNSDRVLKRSAEGSNPPKPLKKLRFDIEGSDEADGSKHLPGESKFQQKLAEMTSTRTRMQKQKMNDSMDTSNKEEK
As to B2, the binding entry in assay [3] is given as “binds”.

Source of the values: paper PMC3057995, “Potent Anti-Tumor Effect Generated by a Novel Human Papillomavirus (HPV) Antagonist Peptide Reactivating the pRb/E2F Pathway” (PLoS ONE, 2011).
